Results from the supplement of paper PMC10849652.
The other results are listed elsewhere or left out.

Amino acid sequences for entries named in this document (tags omitted). A change or cut given only in a name is not applied to a line headed by its entry.
UniProt P22061: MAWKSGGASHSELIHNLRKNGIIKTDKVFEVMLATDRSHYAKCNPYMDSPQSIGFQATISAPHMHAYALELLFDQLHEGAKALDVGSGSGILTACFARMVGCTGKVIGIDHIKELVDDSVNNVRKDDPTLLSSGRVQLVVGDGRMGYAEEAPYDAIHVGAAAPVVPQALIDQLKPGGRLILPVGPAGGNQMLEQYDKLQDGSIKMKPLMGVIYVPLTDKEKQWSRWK
UniProt Q9H4Z3: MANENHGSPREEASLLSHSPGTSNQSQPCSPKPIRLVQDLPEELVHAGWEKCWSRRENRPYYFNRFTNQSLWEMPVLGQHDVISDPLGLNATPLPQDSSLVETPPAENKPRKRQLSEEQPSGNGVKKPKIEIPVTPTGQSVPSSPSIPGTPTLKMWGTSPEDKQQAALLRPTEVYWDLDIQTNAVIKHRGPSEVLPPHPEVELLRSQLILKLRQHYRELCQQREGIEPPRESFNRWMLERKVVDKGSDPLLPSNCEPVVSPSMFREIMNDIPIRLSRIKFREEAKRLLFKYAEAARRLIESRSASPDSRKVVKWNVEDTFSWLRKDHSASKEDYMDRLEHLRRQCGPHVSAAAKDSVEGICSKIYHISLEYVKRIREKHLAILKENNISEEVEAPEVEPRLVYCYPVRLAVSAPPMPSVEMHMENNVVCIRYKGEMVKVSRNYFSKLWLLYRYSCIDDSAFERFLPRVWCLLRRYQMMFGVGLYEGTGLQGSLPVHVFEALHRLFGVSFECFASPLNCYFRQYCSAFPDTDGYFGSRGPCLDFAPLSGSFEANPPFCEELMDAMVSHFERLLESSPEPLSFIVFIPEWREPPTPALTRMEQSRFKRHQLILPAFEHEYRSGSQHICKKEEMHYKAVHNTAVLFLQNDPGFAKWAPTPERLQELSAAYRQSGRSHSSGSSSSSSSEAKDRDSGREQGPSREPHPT
UniProt O14737: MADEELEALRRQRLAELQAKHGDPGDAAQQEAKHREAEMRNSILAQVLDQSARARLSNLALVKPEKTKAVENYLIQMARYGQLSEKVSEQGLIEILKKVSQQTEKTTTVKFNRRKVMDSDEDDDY
UniProt Q9BUL8: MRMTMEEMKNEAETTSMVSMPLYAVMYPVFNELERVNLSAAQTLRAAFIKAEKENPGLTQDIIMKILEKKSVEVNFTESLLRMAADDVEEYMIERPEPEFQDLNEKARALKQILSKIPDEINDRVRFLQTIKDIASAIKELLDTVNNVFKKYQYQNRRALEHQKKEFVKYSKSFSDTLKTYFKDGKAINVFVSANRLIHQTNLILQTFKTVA
UniProt P56645: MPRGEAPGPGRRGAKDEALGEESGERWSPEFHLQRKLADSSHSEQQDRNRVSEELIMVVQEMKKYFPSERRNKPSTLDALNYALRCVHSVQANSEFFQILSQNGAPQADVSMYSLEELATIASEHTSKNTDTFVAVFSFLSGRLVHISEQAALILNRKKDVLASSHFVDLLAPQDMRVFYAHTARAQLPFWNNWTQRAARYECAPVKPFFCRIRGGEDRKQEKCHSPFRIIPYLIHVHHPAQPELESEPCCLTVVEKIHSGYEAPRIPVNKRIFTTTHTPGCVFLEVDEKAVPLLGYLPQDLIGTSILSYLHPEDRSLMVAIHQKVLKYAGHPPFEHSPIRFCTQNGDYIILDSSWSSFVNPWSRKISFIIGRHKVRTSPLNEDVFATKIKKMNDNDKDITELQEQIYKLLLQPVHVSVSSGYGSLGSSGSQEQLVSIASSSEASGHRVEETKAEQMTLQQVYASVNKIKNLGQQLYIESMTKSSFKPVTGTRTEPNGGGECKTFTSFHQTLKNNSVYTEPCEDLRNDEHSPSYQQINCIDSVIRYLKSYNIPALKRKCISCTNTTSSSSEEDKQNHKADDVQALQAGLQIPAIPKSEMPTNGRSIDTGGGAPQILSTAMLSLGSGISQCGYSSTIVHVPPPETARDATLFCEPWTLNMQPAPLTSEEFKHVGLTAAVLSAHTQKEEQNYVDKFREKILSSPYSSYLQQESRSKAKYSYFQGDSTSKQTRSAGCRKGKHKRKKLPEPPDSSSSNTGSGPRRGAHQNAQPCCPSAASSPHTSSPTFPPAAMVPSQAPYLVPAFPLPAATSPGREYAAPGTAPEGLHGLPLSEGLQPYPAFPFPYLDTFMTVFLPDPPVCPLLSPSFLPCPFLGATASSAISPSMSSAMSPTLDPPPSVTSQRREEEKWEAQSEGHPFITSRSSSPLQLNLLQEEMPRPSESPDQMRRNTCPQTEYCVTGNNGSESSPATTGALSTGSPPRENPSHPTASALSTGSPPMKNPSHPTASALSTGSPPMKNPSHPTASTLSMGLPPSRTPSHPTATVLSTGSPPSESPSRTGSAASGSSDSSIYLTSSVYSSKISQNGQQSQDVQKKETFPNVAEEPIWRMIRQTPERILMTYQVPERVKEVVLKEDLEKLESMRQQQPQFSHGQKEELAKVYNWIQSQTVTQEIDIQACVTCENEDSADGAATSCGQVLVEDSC
UniProt O00151: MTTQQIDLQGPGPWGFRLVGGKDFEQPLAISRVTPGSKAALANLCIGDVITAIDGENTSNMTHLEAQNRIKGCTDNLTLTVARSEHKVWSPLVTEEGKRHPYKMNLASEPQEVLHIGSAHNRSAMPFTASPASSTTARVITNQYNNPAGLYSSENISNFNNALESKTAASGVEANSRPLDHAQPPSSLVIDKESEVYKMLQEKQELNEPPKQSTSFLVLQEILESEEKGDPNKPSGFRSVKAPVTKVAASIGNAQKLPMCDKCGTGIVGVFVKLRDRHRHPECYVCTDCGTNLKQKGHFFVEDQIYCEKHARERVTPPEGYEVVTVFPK
UniProt Q9UBV8: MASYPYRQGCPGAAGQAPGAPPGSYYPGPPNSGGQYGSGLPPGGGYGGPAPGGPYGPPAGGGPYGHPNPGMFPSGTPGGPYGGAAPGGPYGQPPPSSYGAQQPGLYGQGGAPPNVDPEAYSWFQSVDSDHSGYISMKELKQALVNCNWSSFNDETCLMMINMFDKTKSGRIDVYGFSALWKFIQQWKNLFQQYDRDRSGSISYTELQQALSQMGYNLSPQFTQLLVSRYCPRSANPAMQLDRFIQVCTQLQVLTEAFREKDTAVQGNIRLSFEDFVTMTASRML
UniProt Q8IZL8: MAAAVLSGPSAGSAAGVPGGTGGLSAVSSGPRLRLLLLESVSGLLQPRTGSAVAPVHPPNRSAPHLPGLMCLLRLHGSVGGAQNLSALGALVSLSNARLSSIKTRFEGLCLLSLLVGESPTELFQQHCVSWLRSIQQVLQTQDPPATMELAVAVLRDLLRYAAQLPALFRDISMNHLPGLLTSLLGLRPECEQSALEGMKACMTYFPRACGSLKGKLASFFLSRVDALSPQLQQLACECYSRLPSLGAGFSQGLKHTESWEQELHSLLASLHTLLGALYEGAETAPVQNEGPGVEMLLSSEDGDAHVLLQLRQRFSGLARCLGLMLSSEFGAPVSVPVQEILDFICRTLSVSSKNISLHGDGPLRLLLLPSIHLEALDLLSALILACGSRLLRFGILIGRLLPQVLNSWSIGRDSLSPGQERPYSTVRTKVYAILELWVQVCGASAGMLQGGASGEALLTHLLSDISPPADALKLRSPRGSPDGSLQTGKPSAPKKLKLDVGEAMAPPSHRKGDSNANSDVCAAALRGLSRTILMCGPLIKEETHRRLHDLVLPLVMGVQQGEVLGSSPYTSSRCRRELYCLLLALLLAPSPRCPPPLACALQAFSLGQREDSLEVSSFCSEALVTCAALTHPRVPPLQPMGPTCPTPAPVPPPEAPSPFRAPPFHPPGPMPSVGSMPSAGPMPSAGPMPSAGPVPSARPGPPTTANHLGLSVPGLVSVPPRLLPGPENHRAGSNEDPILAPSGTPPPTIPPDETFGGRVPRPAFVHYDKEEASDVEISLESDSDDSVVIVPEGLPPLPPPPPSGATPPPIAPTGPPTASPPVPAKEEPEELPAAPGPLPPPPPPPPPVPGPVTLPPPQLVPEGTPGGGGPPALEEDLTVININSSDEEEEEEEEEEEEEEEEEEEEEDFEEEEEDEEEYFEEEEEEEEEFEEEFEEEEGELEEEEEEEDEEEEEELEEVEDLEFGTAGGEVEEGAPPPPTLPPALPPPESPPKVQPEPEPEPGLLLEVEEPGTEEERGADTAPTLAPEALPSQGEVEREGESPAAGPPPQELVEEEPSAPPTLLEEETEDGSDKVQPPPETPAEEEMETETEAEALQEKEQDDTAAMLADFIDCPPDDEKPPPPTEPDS
UniProt Q8NEN9: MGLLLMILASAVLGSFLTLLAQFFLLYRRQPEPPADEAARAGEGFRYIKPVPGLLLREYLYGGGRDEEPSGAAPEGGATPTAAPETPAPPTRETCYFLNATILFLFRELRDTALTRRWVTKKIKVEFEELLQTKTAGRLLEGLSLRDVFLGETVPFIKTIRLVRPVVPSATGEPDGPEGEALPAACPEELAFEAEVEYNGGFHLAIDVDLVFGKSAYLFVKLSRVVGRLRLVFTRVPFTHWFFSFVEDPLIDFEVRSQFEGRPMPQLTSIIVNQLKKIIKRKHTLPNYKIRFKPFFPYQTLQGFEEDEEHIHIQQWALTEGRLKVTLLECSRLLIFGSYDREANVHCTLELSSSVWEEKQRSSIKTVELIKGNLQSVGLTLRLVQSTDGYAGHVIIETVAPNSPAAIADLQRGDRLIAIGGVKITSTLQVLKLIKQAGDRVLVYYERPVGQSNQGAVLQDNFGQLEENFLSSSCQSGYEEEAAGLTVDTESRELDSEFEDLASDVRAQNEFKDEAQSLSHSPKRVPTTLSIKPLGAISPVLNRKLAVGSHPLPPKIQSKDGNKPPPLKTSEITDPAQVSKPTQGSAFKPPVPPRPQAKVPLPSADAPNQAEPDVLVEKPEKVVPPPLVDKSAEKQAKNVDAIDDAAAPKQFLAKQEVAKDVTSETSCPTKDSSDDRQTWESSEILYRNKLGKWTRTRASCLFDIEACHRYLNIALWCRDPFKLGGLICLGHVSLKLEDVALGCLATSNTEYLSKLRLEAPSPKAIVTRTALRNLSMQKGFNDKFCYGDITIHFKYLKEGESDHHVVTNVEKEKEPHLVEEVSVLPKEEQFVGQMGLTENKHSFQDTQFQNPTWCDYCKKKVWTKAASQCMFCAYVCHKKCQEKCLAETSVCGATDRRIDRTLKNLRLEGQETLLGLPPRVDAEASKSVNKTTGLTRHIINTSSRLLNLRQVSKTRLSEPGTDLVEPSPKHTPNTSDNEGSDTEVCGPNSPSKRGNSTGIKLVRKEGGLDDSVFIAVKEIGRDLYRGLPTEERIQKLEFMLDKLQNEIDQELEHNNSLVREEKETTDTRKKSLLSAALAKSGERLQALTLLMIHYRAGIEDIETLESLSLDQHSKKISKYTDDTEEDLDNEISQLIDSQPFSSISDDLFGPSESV
UniProt P40425: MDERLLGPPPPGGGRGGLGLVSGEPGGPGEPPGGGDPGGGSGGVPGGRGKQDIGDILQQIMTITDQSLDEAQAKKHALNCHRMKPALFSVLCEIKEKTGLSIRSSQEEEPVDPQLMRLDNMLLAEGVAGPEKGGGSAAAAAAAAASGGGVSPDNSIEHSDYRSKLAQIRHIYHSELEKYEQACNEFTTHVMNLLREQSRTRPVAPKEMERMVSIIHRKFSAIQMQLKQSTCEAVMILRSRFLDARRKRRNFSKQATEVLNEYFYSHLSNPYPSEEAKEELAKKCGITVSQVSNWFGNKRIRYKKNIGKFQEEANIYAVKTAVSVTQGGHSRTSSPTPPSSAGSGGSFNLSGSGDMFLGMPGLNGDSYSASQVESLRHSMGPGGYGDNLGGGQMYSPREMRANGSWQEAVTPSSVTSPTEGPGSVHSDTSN
UniProt Q96GD0: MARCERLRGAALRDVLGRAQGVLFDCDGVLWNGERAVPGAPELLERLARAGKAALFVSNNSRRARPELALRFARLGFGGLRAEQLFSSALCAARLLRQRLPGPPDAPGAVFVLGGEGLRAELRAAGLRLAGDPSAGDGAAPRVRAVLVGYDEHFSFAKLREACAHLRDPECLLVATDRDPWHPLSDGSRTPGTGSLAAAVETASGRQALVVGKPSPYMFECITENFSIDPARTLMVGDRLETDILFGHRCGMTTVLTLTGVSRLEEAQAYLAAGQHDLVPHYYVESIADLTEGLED
UniProt Q9NUG6, whole entry, looked up: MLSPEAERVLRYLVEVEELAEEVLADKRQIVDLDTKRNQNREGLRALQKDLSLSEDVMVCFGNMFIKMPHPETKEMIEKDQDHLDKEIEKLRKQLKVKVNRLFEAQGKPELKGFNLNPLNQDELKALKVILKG
UniProt Q9HBH1: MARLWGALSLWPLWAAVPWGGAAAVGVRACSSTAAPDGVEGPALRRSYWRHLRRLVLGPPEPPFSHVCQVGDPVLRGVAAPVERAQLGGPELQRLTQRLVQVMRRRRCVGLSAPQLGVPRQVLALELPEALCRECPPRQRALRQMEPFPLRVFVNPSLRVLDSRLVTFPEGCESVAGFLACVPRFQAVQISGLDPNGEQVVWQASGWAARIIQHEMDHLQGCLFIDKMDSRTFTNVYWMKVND

Key:
Test in all cases: log2 fold change, soluble protein after heating vs DMSO (PISA); higher = thermal stabilisation; K562 lysate, 10 uM; active = over 0.2 and 3.5 SD of the protein, either way, in both replicates (recomputed)
alvocidib = compound: CN1CC[C@H](c2c(O)cc(O)c3c(=O)cc(-c4ccccc4Cl)oc23)[C@H](O)C1 [alvocidib]
Procedure, shortened: (§1)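 Thermal stability, expressed as log-two fold change relative to solvent controls, is given from duplicates. Crude K562 extract in PBS pH 7.4 with 1 mM MgCl2, at 1 mg/mL protein, was treated with 10 μM compound for 30 min and heated in aliquots for 3 min across 48°C-58°C. After pooling, adjustment to 0.5% NP-40 at 4°C and centrifugation at 21,000xg for 90 min, supernatant protein was measured by TMTpro 16plex LC-MS/MS with channel sums equalised.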

Tubastatin A = compound: CN1CCc2c(c3ccccc3n2Cc2ccc(C(=O)NO)cc2)C1 [Tubastatin A]
Procedure, shortened: as §1

[1] = compound: CNC(=O)C1=CC=CC=C1NC2=NC(=NC=C2Cl)NC3=C(C=C(C=C3)N4CCOCC4)OC
Procedure, shortened: as §1

defactinib = compound: CNC(=O)c1ccc(Nc2ncc(C(F)(F)F)c(NCc3nccnc3N(C)S(C)(=O)=O)n2)cc1 [defactinib]
Procedure, shortened: as §1

[2] = compound: CNc1nc(-c2ccc3c(N)n[nH]c3c2)cc(N2C[C@@H](C(=O)NC3CCCCC3)CC[C@H]2C)n1
Procedure, shortened: as §1

encorafenib = compound: COC(=O)N[C@@H](C)CNc1nccc(-c2cn(C(C)C)nc2-c2cc(Cl)cc(NS(C)(=O)=O)c2F)n1 [encorafenib]
Procedure, shortened: as §1

[3] = compound: COC(=O)[C@H](CCSC)NC(=O)C1=C(C=C(C=C1)NC[C@H](CS)N)C2=CC=CC=C2
Procedure, shortened: as §1

alisertib = compound: COc1cc(Nc2ncc3c(n2)-c2ccc(Cl)cc2C(c2c(F)cccc2OC)=NC3)ccc1C(=O)O [alisertib]
Procedure, shortened: as §1

[4] = compound: COc1cc2nc(-c3cc(F)ccc3O)nc(N[C@@H]3CNC[C@H]3C(C)(C)O)c2cc1OC
Procedure, shortened: as §1

gefitinib = compound: COc1cc2ncnc(Nc3ccc(F)c(Cl)c3)c2cc1OCCCN1CCOCC1 [gefitinib]
Procedure, shortened: as §1

Measured: log2 fold change

PDPR (UniProt Q8NCN5)
inactive: alvocidib -0.076 | Tubastatin A 0.034 | [1] -0.055 | defactinib -0.086 | [2] -0.006 | encorafenib -0.02 | [3] -0.057 | alisertib -0.085 | [4] -0.011 | gefitinib -0.002

PDE12 (UniProt Q6L8Q7)
inactive: alvocidib 0.006 | Tubastatin A 0.012 | [1] -0.006 | defactinib 0 | [2] 0.027 | encorafenib -0.021 | [3] 0.016 | alisertib -0.043 | [4] 0.029 | gefitinib 0.015

PGD (UniProt P52209)
inactive: alvocidib 0.034 | Tubastatin A 0.033 | [1] -0.032 | defactinib -0.016 | [2] -0.036 | encorafenib -0.027 | [3] -0.02 | alisertib -0.007 | [4] 0.001 | gefitinib -0.011

PCMT1 isoform 2 (UniProt P22061)
inactive: alvocidib 0.032 | Tubastatin A 0 | [1] -0.005 | defactinib 0.009 | [2] 0.024 | encorafenib -0.007 | [3] -0.107 | alisertib 0.038 | [4] -0.027 | gefitinib -0.018

PDCD11 (UniProt Q14690)
inactive: alvocidib 0.011 | Tubastatin A 0.002 | [1] -0.018 | defactinib -0.133 | [2] 0.018 | encorafenib 0.085 | [3] 0.077 | alisertib 0.049 | [4] -0.007 | gefitinib 0.064

PCBP2 (UniProt H3BRU6)
inactive: alvocidib 0.033 | Tubastatin A -0.116 | [1] 0.082 | defactinib 0.061 | [2] 0.018 | encorafenib 0.04 | [3] 0.017 | alisertib -0.023 | [4] 0.072 | gefitinib -0.145

PCIF1 (UniProt Q9H4Z3)
inactive: alvocidib 0.038 | Tubastatin A 0.006 | [1] -0.024 | defactinib 0.051 | [2] 0.02 | encorafenib 0.017 | [3] 0.02 | alisertib 0.04 | [4] 0.01 | gefitinib -0.051

PDCD5 (UniProt O14737)
inactive: alvocidib -0.056 | Tubastatin A 0.061 | [1] -0.003 | defactinib -0.007 | [2] 0.031 | encorafenib -0.011 | [3] -0.032 | alisertib 0.034 | [4] 0.008 | gefitinib 0.031

PDXK (UniProt O00764)
inactive: alvocidib -0.031 | Tubastatin A -0.005 | [1] 0.027 | defactinib 0.047 | [2] 0.06 | encorafenib -0.032 | [3] -0.012 | alisertib -0.038 | [4] 0.016 | gefitinib -0.022

PDCD10 (UniProt Q9BUL8)
inactive: alvocidib -0.053 | Tubastatin A -0.002 | [1] 0.013 | defactinib 0.029 | [2] -0.005 | encorafenib -0.019 | [3] 0.034 | alisertib 0.01 | [4] 0.05 | gefitinib -0.025

Reprinted at random: two entries already listed
PDE12 (UniProt Q6L8Q7)
inactive: alvocidib 0.006 | Tubastatin A 0.012 | [1] -0.006 | defactinib 0 | [2] 0.027 | encorafenib -0.021 | [3] 0.016 | alisertib -0.043 | [4] 0.029 | gefitinib 0.015

PDCD11 (UniProt Q14690)
inactive: alvocidib 0.011 | Tubastatin A 0.002 | [1] -0.018 | defactinib -0.133 | [2] 0.018 | encorafenib 0.085 | [3] 0.077 | alisertib 0.049 | [4] -0.007 | gefitinib 0.064

Remaining list, next part

PER3 isoform 2 (UniProt P56645)
inactive: alvocidib 0.022 | Tubastatin A 0.021 | [1] 0.025 | defactinib 0.11 | [2] -0.013 | encorafenib 0.006 | [3] -0.052 | alisertib 0.005 | [4] -0.001 | gefitinib -0.048

PDLIM1 (UniProt O00151)
inactive: alvocidib -0.009 | Tubastatin A 0.063 | [1] 0.022 | defactinib -0.021 | [2] 0.036 | encorafenib -0.002 | [3] -0.028 | alisertib 0 | [4] -0.017 | gefitinib -0.06

PEF1 (UniProt Q9UBV8)
inactive: alvocidib 0.027 | Tubastatin A 0.097 | [1] 0.029 | defactinib 0.087 | [2] 0.029 | encorafenib 0.039 | [3] -0.034 | alisertib -0.017 | [4] 0.029 | gefitinib -0.02

PELP1 (UniProt Q8IZL8)
inactive: alvocidib -0.001 | Tubastatin A -0.042 | [1] -0.048 | defactinib 0.083 | [2] 0.112 | encorafenib 0.006 | [3] 0.052 | alisertib -0.003 | [4] -0.062 | gefitinib -0.085

PFDN4 (UniProt Q9NQP4)
inactive: alvocidib -0.006 | Tubastatin A 0.199 | [1] -0.074 | defactinib 0.108 | [2] 0.007 | encorafenib 0.021 | [3] -0.011 | alisertib -0.081 | [4] 0 | gefitinib 0.045

PDZD8 (UniProt Q8NEN9)
inactive: alvocidib -0.017 | Tubastatin A -0.009 | [1] -0.012 | defactinib -0.031 | [2] 0.037 | encorafenib 0.021 | [3] -0.028 | alisertib -0.002 | [4] 0.041 | gefitinib 0

PDCD6 (UniProt O75340)
inactive: alvocidib 0.038 | Tubastatin A 0.048 | [1] 0.01 | defactinib 0.053 | [2] 0.047 | encorafenib -0.013 | [3] 0.003 | alisertib 0.024 | [4] -0.002 | gefitinib -0.02

PBX2 (UniProt P40425)
inactive: alvocidib -0.018 | Tubastatin A -0.032 | [1] 0.028 | defactinib 0.021 | [2] -0.001 | encorafenib 0.028 | [3] 0.161 | alisertib 0.004 | [4] 0.009 | gefitinib -0.001

PDXP (UniProt Q96GD0)
inactive: alvocidib -0.016 | Tubastatin A 0.04 | [1] 0.006 | defactinib -0.039 | [2] 0.024 | encorafenib -0.029 | [3] -0.003 | alisertib -0.001 | [4] 0.011 | gefitinib 0.018

PEX5 isoform 4 (UniProt P50542)
inactive: alvocidib 0.017 | Tubastatin A -0.012 | [1] -0.05 | defactinib 0.044 | [2] 0.046 | encorafenib 0.025 | [3] 0.022 | alisertib -0.015 | [4] 0.003 | gefitinib -0.008

PARN (UniProt O95453)
inactive: alvocidib 0 | Tubastatin A 0.009 | [1] -0.01 | defactinib -0.002 | [2] -0.016 | encorafenib 0.007 | [3] -0.006 | alisertib -0.039 | [4] -0.013 | gefitinib 0.015

PCCA (UniProt P05165)
inactive: alvocidib 0.001 | Tubastatin A 0.062 | [1] -0.046 | defactinib -0.026 | [2] -0.042 | encorafenib -0.006 | [3] 0.137 | alisertib 0.003 | [4] 0.024 | gefitinib -0.032

PARP14 (UniProt Q460N5)
inactive: alvocidib 0.009 | Tubastatin A -0.238 | [1] -0.15 | defactinib -0.007 | [2] -0.09 | encorafenib 0.021 | [3] 0.082 | alisertib -0.127 | [4] 0 | gefitinib -0.014

PDCD6IP isoform 2 (UniProt Q8WUM4)
inactive: alvocidib 0.033 | Tubastatin A -0.088 | [1] -0.005 | defactinib -0.022 | [2] -0.02 | encorafenib -0.01 | [3] 0.188 | alisertib 0.014 | [4] 0.003 | gefitinib -0.003

PAXBP1 (UniProt Q9Y5B6)
inactive: alvocidib -0.043 | Tubastatin A -0.069 | [1] 0.015 | defactinib 0.005 | [2] -0.004 | encorafenib 0.018 | alisertib 0.013 | [4] -0.003 | gefitinib -0.038
active: [3] 0.29

PFAS (UniProt O15067)
inactive: alvocidib -0.015 | Tubastatin A -0.01 | [1] 0.009 | defactinib 0.022 | [2] 0 | encorafenib -0.004 | [3] 0.119 | alisertib 0.009 | [4] -0.011 | gefitinib -0.009

PDCD6IP (UniProt Q8WUM4)
inactive: alvocidib 0.05 | Tubastatin A 0 | [1] -0.002 | defactinib -0.021 | [2] -0.042 | encorafenib -0.1 | [3] 0.143 | alisertib -0.039 | [4] 0.013 | gefitinib -0.001

PDXDC1 (UniProt Q6P996)
inactive: alvocidib -0.005 | Tubastatin A -0.065 | [1] -0.007 | defactinib 0.034 | [2] 0.088 | encorafenib 0.058 | [3] 0.085 | alisertib 0.049 | [4] -0.006 | gefitinib 0.032

PDRG1 (UniProt Q9NUG6)
inactive: alvocidib 0.001 | Tubastatin A 0.038 | [1] 0.009 | defactinib 0.043 | [2] 0.04 | encorafenib 0.03 | [3] -0.009 | alisertib -0.04 | [4] 0.006 | gefitinib 0.05

PDF (UniProt Q9HBH1)
active: [3] -0.293
inactive: alvocidib 0.01 | Tubastatin A -0.065 | [1] 0.083 | defactinib 0.059 | [2] 0.011 | encorafenib 0.028 | alisertib 0.048 | [4] -0.181 | gefitinib -0.064
